Assay results taken from patent US20090269403A1, “ORAL CONTRACEPTIVE DOSAGE FORMS AND METHODS OF MAKING SUCH DOSAGE FORMS” (priority 2008, published 2009).
For at least one compound, name, drawing or mass did not settle the structure.

Assay: Drug release from enteric-coated drospirenone/ethinylestradiol tablets (USP Type II paddle dissolution)
Assay type: physicochemical
Settings: Example 19 enteric-coated tablets, second test run, 75 rpm, 37° C.
Description: The rate at which the tablets release the drospirenone and ethinylestradiol was determined. Each tablet was placed in 0.1 N HCl and stirred for 2 hours. After this time, the pH of each of the mixtures containing the tablets was adjusted to pH 6.8 with phosphate buffer and stirred for 4 hours using a USP Type II paddle apparatus at 75 rpm and 37° C. A second test run gave the results listed below in Table 12. A graph of the drug release profiles for the second test run is depicted in FIG. 4.

Question: With `C#C[C@]1(O)CC[C@H]2[C@@H]3CCc4cc(O)ccc4[C@H]3CC[C@@]21C` [Ethinyl Estradiol, 17α-ethinylestradiol] as the compound, how does the “Average % Drug Release (n = 6), 5 min” value (5 min, in 0.1 N HCl) read?
Answer: 0.0%

Question: What about the “Average % Drug Release (n = 6), 120 min” value (120 min, end of 2 hours in 0.1 N HCl) of the same compound?
Answer: 0.0%

Question: And the “Average % Drug Release (n = 6), 130 min” value (130 min, 2 hours 0.1 N HCl, then pH 6.8 phosphate buffer)?
Answer: 29.6%

Question: What about the “Average % Drug Release (n = 6), 140 min” value (140 min, 2 hours 0.1 N HCl, then pH 6.8 phosphate buffer) of the same compound?
Answer: 86.4%

Question: What about the “Average % Drug Release (n = 6), 150 min” value (150 min, 2 hours 0.1 N HCl, then pH 6.8 phosphate buffer) of the same compound?
Answer: 85.6%

Question: And the “Average % Drug Release (n = 6), 165 min” value (165 min, 2 hours 0.1 N HCl, then pH 6.8 phosphate buffer)?
Answer: 89.8%

Question: What about the “Average % Drug Release (n = 6), 180 min” value (180 min, 2 hours 0.1 N HCl, then pH 6.8 phosphate buffer) of the same compound?
Answer: 91.4%

Question: And the “Average % Drug Release (n = 6), 240 min” value (240 min, 2 hours 0.1 N HCl, then pH 6.8 phosphate buffer)?
Answer: 92.8%

Question: What about the “Average % Drug Release (n = 6), 300 min” value (300 min, 2 hours 0.1 N HCl, then pH 6.8 phosphate buffer) of the same compound?
Answer: 92.2%
